Test results: paper PMC12664034, “The E3 ubiquitin ligase SPRYD3-MYCBP2(PAM) regulates mitotic cell fate and ubiquitination of USP11 to control spindle assembly” (The Journal of Biological Chemistry, 2025)
These are yes or no findings as the source states them, for the method shown. In cells and extracts the contact can be indirect. Binding calls can cover weak binding; strength is not graded here. Sequences can lack the tags named with a protein.

B1: MYC-SPRYD3 (protein, UniProt Q8NCJ5 1-442)
chain: MRRTRRPRFVLMNKMDDLNLHYRFLNWRRRIREIREVRAFRYQERFKHILVDGDTLSYHGNSGEVGCYVASRPLTKDSNYFEVSIVDSGVRGTIAVGLVPQYYSLDHQPGWLPDSVAYHADDGKLYNGRAKGRQFGSKCNSGDRIGCGIEPVSFDVQTAQIFFTKNGKRVGSTIMPMSPDGLFPAVGMHSLGEEVRLHLNAELGREDDSVMMVDSYEDEWGRLHDVRVCGTLLEYLGKGKSIVDVGLAQARHPLSTRSHYFEVEIVDPGEKCYIALGLARKDYPKNRHPGWSRGSVAYHADDGKIFHGSGVGDPFGPRCYKGDIMGCGIMFPRDYILDSEGDSDDSCDTVILSPTARAVRNVRNVMYLHQEGEEEEEEEEEEEDGEEIEPEHEGRKVVVFFTRNGKIIGKKDAVVPSGGFFPTIGMLSCGEKVKVDLHPLSG

How the values were obtained:
Flag-SPRYD3 = biological target: T1, Flag-SPRYD3 (UniProt Q8NCJ5); test: co-IP; co-transfected HEK293T WT (also ΔFBXO45) cells, 24 h or 48 h; NP-40 buffer lysate; Flag-M2 beads at 4 °C overnight; elution with 3x Flag peptide; Western blot
T1 sequence: B1 chain

Flag-MYCBP2 = test: as above

Molecule | binding (Flag-SPRYD3) | binding (Flag-MYCBP2)
MYC-MYCBP2 | binds | –
B1 | – | binds
